# Source: US20140142352A1, “BUTANOL PURIFICATION” (BUTAMAX ADVANCED BIOFUELS LLC, priority 2012, published 2014)
# Where two headings read alike, the source gives them in different places.
# Tests used:
# [1] = not given; remark: listed apart in the source
# [2] = carbonate 1 %, feed isobutyric acid 1 g/L
# [3] = carbonate 1 %, feed isobutyric acid 3 g/L
# [4] = carbonate 1 %, feed isobutyric acid 10 g/L
# [5] = carbonate 3 %, feed isobutyric acid 1 g/L
# [6] = carbonate 3 %, feed isobutyric acid 3 g/L
# [7] = carbonate 3 %, feed isobutyric acid 10 g/L
# [8] = carbonate 10 %, feed isobutyric acid 1 g/L
# [9] = carbonate 10 %, feed isobutyric acid 3 g/L
# [10] = carbonate 10 %, feed isobutyric acid 10 g/L
Structure (SMILES),isobutyric acid concentration (total acid titration) [2],isobutyric acid concentration (total acid titration) [3],isobutyric acid concentration (total acid titration) [4],isobutyric acid concentration (total acid titration) [5],isobutyric acid concentration (total acid titration) [6],isobutyric acid concentration (total acid titration) [7],isobutyric acid concentration (total acid titration) [8],isobutyric acid concentration (total acid titration) [9],isobutyric acid concentration (total acid titration) [10],isobutyric acid in organic portion of the titrated distillate ([1]; Example 1a distillate titrated with 5 wt % NH3 solution until aqueous portion pH 9),isobutyric acid in organic portion of the distillate ([1]; solution titrated with 5 wt % NH3 solution to pH 8 before distillation)
"O=C([O-])[O-].[K+].[K+] [Potassium Carbonate, potassium carbonate]",0 g/L,1.8 g/L,9.1 g/L,0 g/L,0.4 g/L,6.7 g/L,0 g/L,0 g/L,1.4 g/L,–,–
"O=C([O-])[O-].[Na+].[Na+] [Sodium Carbonate, sodium carbonate]",0.03 g/L,1.2 g/L,8.5 g/L,0 g/L,0.2 g/L,5.8 g/L,0 g/L,0 g/L,0.5 g/L,–,–
N [ammonium hydroxide],–,–,–,–,–,–,–,–,–,0.1 wt %,no detectable isobutyric acid
